Source: PMC9675737
No constants are given. Whether binding was seen depends on the method and setting. For some of these results: In cells and extracts the contact can be indirect. Some binding calls cover weakened binding; strength is not graded here.

Amino acid sequences for entries named in this document (tags omitted).
UniProt O60825: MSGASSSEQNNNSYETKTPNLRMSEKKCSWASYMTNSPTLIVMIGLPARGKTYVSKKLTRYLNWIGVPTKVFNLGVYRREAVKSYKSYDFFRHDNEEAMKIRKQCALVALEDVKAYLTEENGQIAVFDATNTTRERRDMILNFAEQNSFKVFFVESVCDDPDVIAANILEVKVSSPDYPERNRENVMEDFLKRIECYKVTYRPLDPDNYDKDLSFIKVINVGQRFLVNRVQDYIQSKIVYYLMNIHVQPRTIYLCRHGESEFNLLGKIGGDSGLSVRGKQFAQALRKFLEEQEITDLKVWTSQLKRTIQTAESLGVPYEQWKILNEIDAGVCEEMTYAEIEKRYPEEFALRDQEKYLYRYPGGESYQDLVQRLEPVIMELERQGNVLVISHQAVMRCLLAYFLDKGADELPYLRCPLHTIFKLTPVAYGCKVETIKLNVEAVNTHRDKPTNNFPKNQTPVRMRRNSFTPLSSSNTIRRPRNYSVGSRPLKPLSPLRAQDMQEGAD
UniProt Q16875: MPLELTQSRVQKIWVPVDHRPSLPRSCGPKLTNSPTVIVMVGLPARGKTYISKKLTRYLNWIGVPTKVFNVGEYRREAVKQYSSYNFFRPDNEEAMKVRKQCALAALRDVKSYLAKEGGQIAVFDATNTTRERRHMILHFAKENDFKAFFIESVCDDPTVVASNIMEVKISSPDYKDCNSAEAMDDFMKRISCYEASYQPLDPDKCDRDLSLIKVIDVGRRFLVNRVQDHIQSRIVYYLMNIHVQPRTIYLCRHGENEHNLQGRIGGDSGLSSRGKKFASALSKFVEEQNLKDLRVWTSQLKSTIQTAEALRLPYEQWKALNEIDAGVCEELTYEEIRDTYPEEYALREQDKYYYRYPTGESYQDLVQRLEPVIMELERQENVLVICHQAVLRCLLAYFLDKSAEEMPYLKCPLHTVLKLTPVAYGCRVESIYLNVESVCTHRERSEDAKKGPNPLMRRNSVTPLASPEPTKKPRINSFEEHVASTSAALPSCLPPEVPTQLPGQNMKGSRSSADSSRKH
UniProt P31946: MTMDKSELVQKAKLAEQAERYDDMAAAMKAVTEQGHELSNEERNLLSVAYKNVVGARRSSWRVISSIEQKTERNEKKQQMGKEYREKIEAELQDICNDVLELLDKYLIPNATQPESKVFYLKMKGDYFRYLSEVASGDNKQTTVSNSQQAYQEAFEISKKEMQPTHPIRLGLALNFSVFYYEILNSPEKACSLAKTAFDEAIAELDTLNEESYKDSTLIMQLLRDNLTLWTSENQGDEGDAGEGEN

How the values were obtained:
recombinant PFKFB2 = recombinant PFKFB2 (UniProt O60825); assay: co-IP; recombinant PFKFB2 and PFKFB3 incubated in 50 mM NaCl, 50 mM Tris pH 7.4, 1 mM EDTA, 1% NP-40, 30 min at 30 °C, then PFKFB2 or PFKFB3 immunoprecipitation; immunoblot; both purified
[1] = target: His-tagged PFKFB2 (human) (UniProt O60825); assay: co-IP + pull-down; reciprocal and consecutive isolation of Flag-PFKFB3 (anti-Flag M2 affinity gel, eluted with Flag peptide) and His-PFKFB2 (His-tag pull-down) from doubly infected NRAS^Q61 mutant cells, 4 h GS; immunoblot
[2] = target: His-tagged PFKFB2 (human) (UniProt O60825); assay: pull-down; His-tagged PFKFB2 complexes isolated on cobalt IMAC Dynabeads from NRAS^Q61 and BRAF^V600E mutant melanoma cells, control, GS, sorafenib; immunoblot

| binding [2] | Substance | also measured |
| --- | --- | --- |
| – | recombinant PFKFB3 (from UniProt Q16875 1-520) (enzyme) | binding (recombinant PFKFB2): binds |
| – | Flag-PFKFB3 (from UniProt Q16875 1-520) (enzyme) | binding [1]: binds |
| binds | 14-3-3β (from UniProt P31946 1-246) | – |
| binds | PFKFB3 (endogenous) (from UniProt Q16875 1-520) (enzyme) | – |
